Test results reported in article doi:10.1101/459149.
Results are given in words; binding and its absence hold for the method and conditions named. In cells and extracts the contact can be indirect. For some assays here: A result given as binding can be weak or reduced; the word gives no strength. For some assays here: Sequences can lack the tags named with a protein.

How the values were obtained:
Test in all cases: co-IP
[1] = target: FLAG-tagged short form OV20.0 (sh20), N-terminally truncated isoform (Orf virus (ORFV))
[2] = target: FLAG-tagged C-terminus deletion OV20.0 (ΔC) (Orf virus (ORFV))
[3] = target: FLAG-tagged OV20.0 produced during infection with recombinant ORFV (Orf virus (ORFV))
[4] = target: FLAG-tagged Kozak OV20.0 (K20), the full-length isoform only (Orf virus (ORFV))
[5] = target: FLAG-tagged wild-type OV20.0 (ORFV) (Orf virus (ORFV))

B1: endogenous adenosine deaminase acting on RNA 1 (ADAR1) (protein, UniProt P55265-5 1-931)
chain: MAEIKEKICDYLFNVSDSSALNLAKNIGLTKARDINAVLIDMERQGDVYRQGTTPPIWHLTDKKRERMQIKRNTNSVPETAPAAIPETKRNAEFLTCNIPTSNASNNMVTTEKVENGQEPVIKLENRQEARPEPARLKPPVHYNGPSKAGYVDFENGQWATDDIPDDLNSIRAAPGEFRAIMEMPSFYSHGLPRCSPYKKLTECQLKNPISGLLEYAQFASQTCEFNMIEQSGPPHEPRFKFQVVINGREFPPAEAGSKKVAKQDAAMKAMTILLEEAKAKDSGKSEESSHYSTEKESEKTAESQTPTPSATSFFSGKSPVTTLLECMHKLGNSCEFRLLSKEGPAHEPKFQYCVAVGAQTFPSVSAPSKKVAKQMAAEEAMKALHGEATNSMASDNQPEGMISESLDNLESMMPNKVRKIGELVRYLNTNPVGGLLEYARSHGFAAEFKLVDQSGPPHEPKFVYQAKVGGRWFPAVCAHSKKQGKQEAADAALRVLIGENEKAERMGFTEVTPVTGASLRRTMLLLSRSPEAQPKTLPLTGSTFHDQIAMLSHRCFNTLTNSFQPSLLGRKILAAIIMKKDSEDMGVVVSLGTGNRCVKGDSLSLKGETVNDCHAEIISRRGFIRFLYSELMKYNSQTAKDSIFEPAKGGEKLQIKKTVSFHLYISTAPCGDGALFDKSCSDRAMESTESRHYPVFENPKQGKLRTKVENGEGTIPVESSDIVPTWDGIRLGERLRTMSCSDKILRWNVLGLQGALLTHFLQPIYLKSVTLGYLFSQGHLTRAICCRVTRDGSAFEDGLRHPFIVNHPKVGRVSIYDSKRQSGKTKETSVNWCLADGYDLEILDGTRGTVDGPRNELSRVSKKNIFLLFKKLCSFRYRRDLLRLSYGEAKKAARDYETAKNYFKKGLKDMGYGNWISKPQEEKNFYLCPV
B1 was tested. Which binding [1] did it give?
The binding was “binds”.

And the binding [2]?
The binding was “no binding”.

What about the binding [3] of the same binder?
The binding was “binds”.

And the binding [4]?
Its binding is “binds”.

B2: HA-tagged wild-type ADAR1 (p110) (protein, UniProt P55265-5 1-931)
chain: B1 chain
For B2, which binding [5] is on record?
The binding was “binds”.
